The values that follow come from article PMC3502335.

The exact form of at least one protein or probe is not confirmed. Where cells or extracts were used, other partners may take part. At least one verdict was read from the data and is not stated in words by the source. Protein sequences can lack the tags named with them.

For this data set, the target named is T1, Stat5bCA (constitutively active) N642H (rat) (UniProt P52632).
T1 sequence (looked up, limits assumed): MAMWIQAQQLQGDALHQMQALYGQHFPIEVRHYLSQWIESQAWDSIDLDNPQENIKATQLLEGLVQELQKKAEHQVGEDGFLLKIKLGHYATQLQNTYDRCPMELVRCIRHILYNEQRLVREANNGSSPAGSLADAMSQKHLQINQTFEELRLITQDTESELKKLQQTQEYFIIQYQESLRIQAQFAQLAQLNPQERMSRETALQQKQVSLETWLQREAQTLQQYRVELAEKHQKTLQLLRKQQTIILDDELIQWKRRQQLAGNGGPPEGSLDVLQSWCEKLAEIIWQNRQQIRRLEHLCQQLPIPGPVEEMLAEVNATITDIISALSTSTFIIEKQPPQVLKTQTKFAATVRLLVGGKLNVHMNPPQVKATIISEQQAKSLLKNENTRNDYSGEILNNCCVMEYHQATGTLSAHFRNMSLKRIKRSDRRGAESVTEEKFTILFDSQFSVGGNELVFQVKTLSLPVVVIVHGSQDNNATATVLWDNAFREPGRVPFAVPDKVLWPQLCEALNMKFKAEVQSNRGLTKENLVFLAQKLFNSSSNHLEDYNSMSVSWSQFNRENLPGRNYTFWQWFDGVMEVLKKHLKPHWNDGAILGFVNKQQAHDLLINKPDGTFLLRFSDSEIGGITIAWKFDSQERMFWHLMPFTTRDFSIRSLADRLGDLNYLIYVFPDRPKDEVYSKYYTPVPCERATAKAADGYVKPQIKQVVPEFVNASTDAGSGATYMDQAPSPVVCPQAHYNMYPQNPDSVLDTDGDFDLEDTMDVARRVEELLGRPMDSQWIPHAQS
Nature of the data set: EMSA. The note with it: low-affinity parent site; Cos-7 nuclear extract (1 ug for Kd, 2 ug for competition), 60 min at 4 C; 5% native PAGE in 1x TBE pH 8.3 at 20 C; probe 0.1-15 nM; binding buffer not given (ref 31); protein in a lysate after overexpression; protein details: Flag; label: 5'-Cy5.5 as probe, unlabeled as competitor. A general note: In EMSA bound probe runs differently from free probe, usually more slowly.

On to “TCTGCTTCTTAGAATGAAG (double strand) [R35]”, for which the binding result is recorded as “binds”.
